Where two headings read alike, the source gives them in different places. No constants are given. Whether binding was seen depends on the method and setting. Some results given as binding are weak or reduced against the parent protein; the word gives no strength. For some assays here: Tags and fused reporters may be left off the sequences shown. Blank lines part the entries; values can stand above or below the molecule they belong to.
Key:
[1] = target: human RSPO2-AP (alkaline-phosphatase-tagged R-Spondin 2 fusion protein) (human) (UniProt Q6UXX9); experiment: cell surface competitive binding assay (AP fusion protein on transfected cells); as a4; the soluble Fc Chimera (5 nM) against RSPO2-AP in conditioned medium; only the binder purified
[2] = target: human FGFR4-HA (Fibroblast Growth Factor receptor 4) on transfected HEK293T cells (human) (UniProt P22455); experiment: cell surface binding assay (AP fusion protein on transfected cells); HEK293T cells transfected with the receptor; 2-2.5 U ml^-1 AP-fused conditioned media for 3 h on ice; cross-linked with DSP; developed with BM-Purple
[3] = target: T1, Xenopus tropicalis Lgr4-V5 on transfected HEK293T cells (Xenopus tropicalis) (UniProt B0BLW3); experiment: as above
T1 sequence: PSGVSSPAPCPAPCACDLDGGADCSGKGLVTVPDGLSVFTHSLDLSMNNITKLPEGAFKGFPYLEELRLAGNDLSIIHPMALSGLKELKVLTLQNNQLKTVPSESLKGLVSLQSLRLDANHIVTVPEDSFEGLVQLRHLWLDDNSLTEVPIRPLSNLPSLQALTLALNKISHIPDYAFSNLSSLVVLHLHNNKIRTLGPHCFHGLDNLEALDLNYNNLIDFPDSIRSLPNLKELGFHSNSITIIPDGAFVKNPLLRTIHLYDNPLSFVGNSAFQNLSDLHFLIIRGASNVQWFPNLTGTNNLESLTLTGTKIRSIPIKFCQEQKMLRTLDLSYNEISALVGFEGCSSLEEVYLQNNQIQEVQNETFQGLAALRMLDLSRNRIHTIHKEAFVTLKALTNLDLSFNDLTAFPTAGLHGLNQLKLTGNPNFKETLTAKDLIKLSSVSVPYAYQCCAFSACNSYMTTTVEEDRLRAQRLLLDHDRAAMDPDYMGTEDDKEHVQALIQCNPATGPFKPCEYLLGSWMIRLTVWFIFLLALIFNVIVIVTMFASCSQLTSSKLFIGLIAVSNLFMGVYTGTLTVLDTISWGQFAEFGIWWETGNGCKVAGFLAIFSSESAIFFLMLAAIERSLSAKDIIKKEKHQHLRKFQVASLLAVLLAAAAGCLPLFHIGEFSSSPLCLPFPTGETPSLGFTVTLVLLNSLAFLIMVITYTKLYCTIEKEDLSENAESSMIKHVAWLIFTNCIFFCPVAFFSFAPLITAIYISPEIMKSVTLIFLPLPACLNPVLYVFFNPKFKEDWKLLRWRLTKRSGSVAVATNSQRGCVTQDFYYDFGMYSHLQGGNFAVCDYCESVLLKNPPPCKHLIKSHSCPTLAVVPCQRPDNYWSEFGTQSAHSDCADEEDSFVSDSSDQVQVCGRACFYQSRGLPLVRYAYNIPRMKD

Amino acid sequences for entries named in this document (tags omitted). A change or cut given only in a name is not applied to a line headed by its entry. Residues count along the entry.
UniProt P11362, residues 22-376: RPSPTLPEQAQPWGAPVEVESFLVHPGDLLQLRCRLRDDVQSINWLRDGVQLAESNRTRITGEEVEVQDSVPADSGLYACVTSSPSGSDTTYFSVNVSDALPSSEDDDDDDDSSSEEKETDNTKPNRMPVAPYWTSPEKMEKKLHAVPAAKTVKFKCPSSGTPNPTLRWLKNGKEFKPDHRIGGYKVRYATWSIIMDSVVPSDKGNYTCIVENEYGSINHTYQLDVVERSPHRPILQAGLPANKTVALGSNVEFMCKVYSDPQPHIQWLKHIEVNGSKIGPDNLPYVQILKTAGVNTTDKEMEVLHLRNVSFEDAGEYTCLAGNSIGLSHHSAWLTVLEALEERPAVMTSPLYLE
UniProt P36894: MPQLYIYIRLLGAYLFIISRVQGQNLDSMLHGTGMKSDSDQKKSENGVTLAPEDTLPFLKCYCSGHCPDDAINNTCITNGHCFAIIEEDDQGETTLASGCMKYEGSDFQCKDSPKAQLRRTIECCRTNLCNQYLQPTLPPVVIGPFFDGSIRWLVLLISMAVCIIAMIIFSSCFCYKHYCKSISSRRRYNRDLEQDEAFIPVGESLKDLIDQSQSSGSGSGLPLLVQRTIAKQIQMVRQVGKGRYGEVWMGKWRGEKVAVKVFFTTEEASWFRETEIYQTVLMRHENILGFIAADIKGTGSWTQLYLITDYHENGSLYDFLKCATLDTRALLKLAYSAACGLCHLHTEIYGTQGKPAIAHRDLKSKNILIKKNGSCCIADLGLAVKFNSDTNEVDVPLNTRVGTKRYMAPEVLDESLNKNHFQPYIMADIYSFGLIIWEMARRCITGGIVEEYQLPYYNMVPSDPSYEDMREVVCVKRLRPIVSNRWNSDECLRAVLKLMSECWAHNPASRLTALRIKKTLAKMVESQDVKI
BMPR1A-HA on transfected HEK293T cells: residues 24-532 of P36894
UniProt Q2MKA7, residues 21-263: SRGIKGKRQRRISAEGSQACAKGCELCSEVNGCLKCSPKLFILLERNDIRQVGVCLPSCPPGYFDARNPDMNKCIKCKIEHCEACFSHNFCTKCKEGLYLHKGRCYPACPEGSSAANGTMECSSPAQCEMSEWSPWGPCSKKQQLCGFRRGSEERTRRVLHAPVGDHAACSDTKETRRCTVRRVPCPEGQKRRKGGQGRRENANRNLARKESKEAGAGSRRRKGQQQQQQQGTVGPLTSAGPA
UniProt Q2I0M5, residues 20-234: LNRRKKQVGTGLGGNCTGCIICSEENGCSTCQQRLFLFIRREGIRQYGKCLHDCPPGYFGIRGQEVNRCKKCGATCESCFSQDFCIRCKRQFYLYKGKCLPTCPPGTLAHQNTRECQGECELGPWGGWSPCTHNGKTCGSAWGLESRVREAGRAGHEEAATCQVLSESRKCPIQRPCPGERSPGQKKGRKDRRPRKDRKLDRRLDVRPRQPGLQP

FGFR1 Fc Chimera [4] = target: FGFR1 Fc Chimera (UniProt P11362); experiment: in vitro binding assay (solid phase, bound AP activity); 96-well plates coated with 2-4 ug ml^-1 Fc Chimera in bicarbonate coating buffer pH 9.6; 2 U ml^-1 RSPOs-AP overnight at 4 °C; AquaSpark AP substrate; only the target purified
[5] = target: T2, recombinant human FGFR4 Fc Chimera (human, UniProt P22455 22-369); experiment: as above
T2 construct: Fibroblast Growth Factor receptor 4 (FGFR4), human, extracellular domain; also called FGFR4^ECD; extracellular domain (ECD) of FGFR4; source: bought: R&D systems 685-FR and BioLegend 752502
T2 sequence (looked up): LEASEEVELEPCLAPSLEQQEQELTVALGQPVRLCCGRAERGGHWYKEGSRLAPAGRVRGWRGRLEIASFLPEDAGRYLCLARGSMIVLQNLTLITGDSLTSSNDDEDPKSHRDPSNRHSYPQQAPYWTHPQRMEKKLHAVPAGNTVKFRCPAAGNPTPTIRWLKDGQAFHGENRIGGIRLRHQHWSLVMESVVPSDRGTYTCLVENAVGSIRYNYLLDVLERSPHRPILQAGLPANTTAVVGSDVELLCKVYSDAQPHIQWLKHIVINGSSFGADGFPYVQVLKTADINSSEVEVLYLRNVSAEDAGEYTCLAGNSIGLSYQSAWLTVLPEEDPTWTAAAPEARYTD

[6] = target: human FGFR4-HA (Fibroblast Growth Factor receptor 4) on transfected HEK293T cells (human) (UniProt P22455); experiment: cell surface competitive binding assay (AP fusion protein on transfected cells); HEK293T cells transfected with the receptor; RSPO2-AP conditioned medium together with 5 nM FGFR4 Fc Chimera or 5 nM BMPR1A Fc Chimera; the pair RSPO2-AP and receptor on cells
[7] = target: BMPR1A-HA on transfected HEK293T cells (UniProt P36894); experiment: as above
[8] = target: human FGFR4-HA (Fibroblast Growth Factor receptor 4) on transfected HEK293T cells (human) (UniProt P22455); experiment: cell surface competitive binding assay (AP fusion protein on transfected cells); HEK293T cells transfected with the receptor; RSPO2-AP conditioned medium together with 50 uM TK, KC or RW peptide; the pair RSPO2-AP and receptor on cells
[9] = target: BMPR1A-HA on transfected HEK293T cells (UniProt P36894); experiment: as above
[10] = target: T2, recombinant human FGFR4 Fc Chimera; experiment: in vitro competitive binding assay (solid phase, bound AP activity); coated FGFR4 Fc Chimera; 2 U ml^-1 RSPO2-AP together with 100 uM monomeric peptides for 3 h at room temperature; the pair RSPO2-AP and FGFR4 Fc; only the target purified
FGFR1 Fc Chimera [11] = target: FGFR1 Fc Chimera (UniProt P11362); experiment: in vitro binding assay (solid phase, bound AP activity); 96-well plates coated with 2-4 ug ml^-1 Fc Chimera in bicarbonate coating buffer pH 9.6; 2 U ml^-1 RSPOs-AP overnight at 4 °C; AquaSpark AP substrate; only the target purified; remark: listed apart in the source
[12] = target: human FGFR4-HA (Fibroblast Growth Factor receptor 4) on transfected HEK293T cells (human) (UniProt P22455); experiment: cell surface binding assay (AP fusion protein on transfected cells); HEK293T cells transfected with the receptor; 2-2.5 U ml^-1 AP-fused conditioned media for 3 h on ice; cross-linked with DSP; developed with BM-Purple; remark: listed apart in the source
[13] = target: T1, Xenopus tropicalis Lgr4-V5 on transfected HEK293T cells (Xenopus tropicalis); experiment: as above; remark: listed apart in the source
[14] = target: T3, Xenopus laevis Fgfr4a-V5 on transfected HEK293T cells (Xenopus laevis) (UniProt Q91743); experiment: as above
T3 sequence: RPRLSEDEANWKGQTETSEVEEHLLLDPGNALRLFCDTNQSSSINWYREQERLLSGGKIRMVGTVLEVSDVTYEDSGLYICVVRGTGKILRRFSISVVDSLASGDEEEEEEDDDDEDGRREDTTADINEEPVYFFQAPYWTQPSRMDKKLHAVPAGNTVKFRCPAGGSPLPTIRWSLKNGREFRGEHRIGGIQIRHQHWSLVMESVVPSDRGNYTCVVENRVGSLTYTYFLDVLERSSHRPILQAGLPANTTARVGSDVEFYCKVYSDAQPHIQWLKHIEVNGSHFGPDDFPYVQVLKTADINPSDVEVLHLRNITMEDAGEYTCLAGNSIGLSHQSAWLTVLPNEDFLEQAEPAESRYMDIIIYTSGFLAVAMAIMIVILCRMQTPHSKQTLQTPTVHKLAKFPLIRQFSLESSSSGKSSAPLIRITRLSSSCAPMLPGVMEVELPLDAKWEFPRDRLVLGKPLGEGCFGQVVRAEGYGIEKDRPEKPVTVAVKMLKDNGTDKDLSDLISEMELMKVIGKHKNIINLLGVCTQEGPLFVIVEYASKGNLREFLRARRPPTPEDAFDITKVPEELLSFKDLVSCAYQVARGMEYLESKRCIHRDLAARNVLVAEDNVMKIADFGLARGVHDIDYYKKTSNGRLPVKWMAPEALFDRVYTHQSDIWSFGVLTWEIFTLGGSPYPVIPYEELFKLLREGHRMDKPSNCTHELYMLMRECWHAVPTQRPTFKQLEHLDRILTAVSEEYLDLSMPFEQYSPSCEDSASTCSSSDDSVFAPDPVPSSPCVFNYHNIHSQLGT

[15] = target: human FGFR4-HA (Fibroblast Growth Factor receptor 4) on transfected HEK293T cells (human) (UniProt P22455); experiment: cell surface competitive binding assay (AP fusion protein on transfected cells); as a6; the peptide (50 uM) against the receptor on cells; only the binder purified

Molecule: BMPR1A Fc Chimera (from UniProt P36894 24-152) (Fc fusion)
binding [1]: binds

Molecule: human RSPO1-AP (alkaline-phosphatase-tagged R-Spondin 1 fusion protein) (from UniProt Q2MKA7 21-263) (ligand)
binding [2]: no binding (tested: 2-2.5 U ml^-1 AP-fused conditioned media) | binding [3]: binds

B3: Xenopus Rspo2 wildtype-AP (ligand, UniProt Q5UE90 22-243)
chain: QASRWRRSKRASYGTNPICKGCLSCSKDNGCLRCQPKLFFFLRREGMRQYGECLQSCPPGYYGVRGPDMNRCSRCRIENCDSCFSRDFCIKCKSGFYSLKGQCFEECPEGFAPLDDTMVCVDGCEVGPWSEWGTCSRNNRTCGFKWGLETRTRQIVKKPAKDTIPCPTIAESRRCKMAIRHCPGGKRTTKKKDKRNKKKKKKLLERAQEQHSVVLATDRSSQ
binding [14]: binds

B4: TK peptide (10-mer derived from the human RSPO2 TSP1 domain) (peptide)
peptide: TRQIVKKPVK
notes: stretch of the TSP1 domain of human R-Spondin 2 (RSPO2)
binding [15]: binds

B5: KC peptide (10-mer derived from the human RSPO2 TSP1 domain) (peptide)
peptide: KKPVKDTILC
notes: as for B4
binding [15]: binds

Now from value to molecule, other results behind:

binding [3]: binds
Molecule: human RSPO4-AP (alkaline-phosphatase-tagged R-Spondin 4 fusion protein) (from UniProt Q2I0M5 20-234) (ligand)
binding [2]: no binding (tested: 2-2.5 U ml^-1 AP-fused conditioned media)

binding (FGFR1 Fc Chimera [4]): binds weakly | binding [5]: binds | binding [6]: binds | binding [7]: binds | binding [2]: binds | binding [3]: binds | binding [8]: binds | binding [9]: binds | binding [10]: binds
B1: human RSPO2-AP (alkaline-phosphatase-tagged R-Spondin 2 fusion protein) (ligand, UniProt Q6UXX9 22-243, looked up)
chain: QGNRWRRSKRASYVSNPICKGCLSCSKDNGCSRCQQKLFFFLRREGMRQYGECLHSCPSGYYGHRAPDMNRCARCRIENCDSCFSKDFCTKCKVGFYLHRGRCFDECPDGFAPLEETMECVEGCEVGHWSEWGTCSRNNRTCGFKWGLETRTRQIVKKPVKDTILCPTIAESRRCKMTMRHCPGGKRTPKAKEKRNKKKKRKLIERAQEQHSVFLATDRANQ
notes: R-Spondin 2 (RSPO2), human; also called R2; source: HEK293T, transfected, conditioned medium

binding (FGFR1 Fc Chimera [11]): binds weakly | binding [12]: binds weakly | binding [13]: binds
B2: human RSPO3-AP (alkaline-phosphatase-tagged R-Spondin 3 fusion protein) (ligand, UniProt Q9BXY4 22-272)
chain: QNASRGRRQRRMHPNVSQGCQGGCATCSDYNGCLSCKPRLFFALERIGMKQIGVCLSSCPSGYYGTRYPDINKCTKCKADCDTCFNKNFCTKCKSGFYLHLGKCLDNCPEGLEANNHTMECVSIVHCEVSEWNPWSPCTKKGKTCGFKRGTETRVREIIQHPSAKGNLCPPTNETRKCTVQRKKCQKGERGKKGRERKRKKPNKGESKEAIPDSKSLESSKEIPEQRENKQQQKKRKVQDKQKSVSVSTVH

Source: article PMC10837206, “R-Spondin 2 governs Xenopus left-right body axis formation by establishing an FGF signaling gradient” (Nature Communications, 2024)
